Measured values published in the supplement of paper PMC9135407.
“And” between values parts separate entries of the source, which are not always exact repeats. Equal entries are not always repeated. Structures can show the parent of a compound that is named as a salt. ± gives the standard deviation of the averaged measurements. The list shows a part of the results. Part of the spread comes from offsets between plates or batches.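 Culture-activated primary human stellate myofibroblasts, where regained lipid droplets signal inactivation. Value: share of Hoechst-counted cells above a per-plate Bodipy cutoff, in duplicate wells, with DMSO negative and nortriptyline positive controls on each plate. Hits: a control-normalized score above the plate's top-tenth-percentile nortriptyline wells, or one of a plate's three best wells. Final well concentrations are not given.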

System: primary human hepatic stellate cells (donor 1)
Assay: percent Bodipy-positive cells; higher = more lipid droplet accumulation
Conditions: 48 h
[1] = library stock concentration: 10 mM
[2] = library stock concentration: 3.33 mM
[3] = library stock concentration: 7.2 mM
[4] = library stock concentration: 1 mM

Structure (SMILES): CC(=O)c1c(O)c(C)c(O)c(Cc2c(O)c3c(c(C(=O)/C=C/c4ccccc4)c2O)OC(C)(C)C=C3)c1O [Rottlerin]
- percent Bodipy-positive cells (library stock concentration: 9.7 mM): 22.6 ± 6.4%
- percent Bodipy-positive cells [1]: 22.4 ± 0.93%

Structure (SMILES): COc1ccccc1N1CCNCC1 [1-(2-Methoxyphenyl)piperazine hydrochloride]
- percent Bodipy-positive cells [1]: 18.8 ± 4.1%

Structure (SMILES): C=C1C[C@@H]2[C@H](CC[C@]3(C)C(=O)CC[C@@H]23)[C@@]2(C)C=CC(=O)C=C12
- percent Bodipy-positive cells [1]: 42.3 ± 7.1%

Structure (SMILES): C=C1C[C@@H]2[C@H](CC[C@]3(C)C(=O)CC[C@@H]23)[C@@]2(C)C=CC(=O)C=C12 [Exemestane]
- percent Bodipy-positive cells [2]: 12.1 ± 6.5%
- percent Bodipy-positive cells (library stock concentration: 6.7 mM): 7.33 ± 0.26%
- percent Bodipy-positive cells [1]: 25.3 ± 5.5%

Structure (SMILES): Cc1ccc(-n2nccn2)c(C(=O)N2CCN(c3nc4cc(Cl)ccc4o3)CC[C@H]2C)c1 [Suvorexant (MK-4305)]
- percent Bodipy-positive cells [2]: 29.6 ± 6.9%
- percent Bodipy-positive cells [1]: 38.6 ± 9.8%

Structure (SMILES): COc1ccc(CCN2CCC(Nc3nc4ccccc4n3Cc3ccc(F)cc3)CC2)cc1 [Astemizole]
- percent Bodipy-positive cells: 98.82 ± 0.14%

Structure (SMILES): COc1ccc2c(c1OC)C(=O)O[C@H]2[C@@H]1c2cc3c(cc2CCN1C)OCO3 [1s,9r-hydrastine]
- percent Bodipy-positive cells [1]: 28.3 ± 8.2%

Structure (SMILES): CCCN1CCO[C@@H]2c3cc(O)ccc3OC[C@H]21
- percent Bodipy-positive cells [2]: 11.5 ± 4.7%
- percent Bodipy-positive cells [1]: 11.4% and 5.28%

Structure (SMILES): CCCN1CCO[C@@H]2c3cc(O)ccc3OC[C@H]21 [(?)-PD 128,907 hydrochloride]
- percent Bodipy-positive cells [1]: 13.2 ± 3.1%

Structure (SMILES): C=CCC1(C(C)CCC)C(=O)NC(=S)NC1=O (configuration not stated) [Thiamylal sodium]
- percent Bodipy-positive cells [3]: 1.15 ± 0.57%

Structure (SMILES): CCCCCCCCCCCCCCCC[n+]1ccccc1 [Cetylpyridinium Chloride]
- percent Bodipy-positive cells [2]: 20.9 ± 14%
- percent Bodipy-positive cells [1]: 100%

Structure (SMILES): CCCCCCCCCCCCCCCC[n+]1ccccc1 [Cetylpyridinium chloride]
- percent Bodipy-positive cells (library stock concentration: 5.9 mM): 89.1 ± 13%
- percent Bodipy-positive cells [1]: 77%

Structure (SMILES): c1ccc2c3c([nH]c2c1)CNCC3
- percent Bodipy-positive cells [1]: 52 ± 6.6%

Structure (SMILES): Fc1cc(F)c2c(c1)[C@H]1C=CC[C@@H]1C(c1cccnc1)N2 (some centres not stated) [Golgicide A]
- percent Bodipy-positive cells [2]: 99.38 ± 0.2%
- percent Bodipy-positive cells [1]: 94.03 ± 0.75%

Structure (SMILES): CC(=O)O[C@@H]1CC[C@@]2(C)[C@@H](CC[C@@H]3[C@@H]2CC[C@]2(C)C(=O)CC[C@@H]32)C1 [Androsterone acetate]
- percent Bodipy-positive cells [1]: 35.3 ± 0.74%

Structure (SMILES): c1ccc(/N=N/c2ccccc2)cc1 [Azobenzene]
- percent Bodipy-positive cells [1]: 34.1 ± 15%

Structure (SMILES): CCCCCCC(=O)CCCCCC/C=C/C[C@@H](O)[C@H](O)[C@@](N)(CO)C(=O)O [Myriocin]
- percent Bodipy-positive cells [4]: 11.6 ± 1.4%

Structure (SMILES): CCOP(=S)(OCC)Oc1nc(Cl)c(Cl)cc1Cl
- percent Bodipy-positive cells [1]: 26.91 ± 0.14%

Structure (SMILES): CCOC(=O)c1ncn2c1CN(C)C(=O)c1cc(N=[N+]=[N-])ccc1-2
- percent Bodipy-positive cells [1]: 5.14 ± 2.4%

Structure (SMILES): CCCn1c(C)c(C(=O)c2cccc3ccccc23)c2ccccc21
- percent Bodipy-positive cells [4]: 7.06 ± 2.8%

Structure (SMILES): CCCCCCC(=O)O[C@H]1CC[C@H]2[C@@H]3C=CC4=CC(=O)CC[C@]4(C)[C@H]3CC[C@]12C [.DELTA.6-Testosterone Enanthate]
- percent Bodipy-positive cells [4]: 8.74 ± 1.3%

Structure (SMILES): O=P1(N(CCCl)CCCl)NCCCO1 (configuration not stated) [Cyclophosphamide hydrate]
- percent Bodipy-positive cells [3]: 1.19 ± 0.64%
- percent Bodipy-positive cells [1]: 9.55 ± 3.4%

Structure (SMILES): O=P1(N(CCCl)CCCl)NCCCO1 (configuration not stated) [Cyclophosphamide monohydrate]
- percent Bodipy-positive cells (library stock concentration: 7.7 mM): 5.38 ± 3.5%
- percent Bodipy-positive cells [1]: 29.3 ± 7.3%

Structure (SMILES): O=P1(N(CCCl)CCCl)NCCCO1 (configuration not stated) [Cytoxan]
- percent Bodipy-positive cells [1]: 22.6 ± 5.2%

Structure (SMILES): c1ccc2c(c1)sc1ccccc12 [Dibenzothiophene]
- percent Bodipy-positive cells [2]: 12.8 ± 3%
- percent Bodipy-positive cells (library stock concentration: 10.9 mM): 3.16 ± 0.48%

Structure (SMILES): CCCN[C@@H]1CCc2c(OC)cccc2[C@@H]1C [(+)-AJ 76 hydrochloride]
- percent Bodipy-positive cells [1]: 23.5 ± 5.4%

Structure (SMILES): CCCCC/C=C\C/C=C\C/C=C\C/C=C\CCCC(=O)NCCCC(=O)O [N-Arachidonoyl-.gamma.-Aminobutyric Acid]
- percent Bodipy-positive cells [4]: 14.5 ± 3.6%

Structure (SMILES): CO[C@@H]1C=C2CCN(C)[C@@H]2C2c3cc4c(cc3C(=O)OC21)OCO4 (some centres not stated) [Ungerine nitrate]
- percent Bodipy-positive cells: 6.69 ± 0.15%

Structure (SMILES): CCCCC/C=C\C/C=C\C/C=C\C/C=C\CCCC(=O)Nc1ccc([N+](=O)[O-])cc1 [Arachidonoyl p-Nitroaniline]
- percent Bodipy-positive cells [4]: 16.3 ± 3.5%

Structure (SMILES): CC(=O)OCC1=C(C(=O)[O-])N2C(=O)[C@@H](NC(=O)CCC[C@@H](N)C(=O)[O-])[C@H]2SC1.[Zn+2] [Cephalosporin C zinc salt]
- percent Bodipy-positive cells [1]: 57.3 ± 0.95%

Structure (SMILES): CN(C)[C@@H]1C(=O)C(C(N)=O)=C(O)[C@@]2(O)C(=O)C3=C(O)c4c(O)cccc4[C@@](C)(O)[C@H]3[C@H](O)[C@@H]12 [Oxytetracycline (Terramycin)]
- percent Bodipy-positive cells [2]: 16.9 ± 13%
- percent Bodipy-positive cells [1]: 16.8 ± 1.6%

Structure (SMILES): CN1C(=O)CCS(=O)(=O)C1c1ccc(Cl)cc1 (configuration not stated) [Chlormezanone]
- percent Bodipy-positive cells: 20.9 ± 8.5%
- percent Bodipy-positive cells [2]: 9.93 ± 1.9%

Structure (SMILES): CC(=O)NC1CCSC1=O (configuration not stated) [Citiolone]
- percent Bodipy-positive cells [1]: 38.41 ± 0.36%

Structure (SMILES): O=C(O)[C@@H]1CCN1 [L-azetidine-2-carboxylic acid]
- percent Bodipy-positive cells [1]: 51.8 ± 5.5%

Structure (SMILES): O=C(O)Cc1cnc[nH]1 [Imidazole-4-acetic acid hydrochloride]
- percent Bodipy-positive cells [1]: 44.6 ± 25%

Structure (SMILES): CCCCC/C=C\C/C=C\C/C=C\C/C=C\CCCC(=O)N[C@@H](C)C(=O)O [N-Arachidonoyl-L-Alanine]
- percent Bodipy-positive cells [4]: 13 ± 2%

Structure (SMILES): CNC(=O)Oc1ccccc1OC(C)C
- percent Bodipy-positive cells [1]: 17.6 ± 1.7%

Structure (SMILES): C[C@H]1CC[C@]2(NC1)O[C@H]1C[C@H]3[C@@H]4CC[C@H]5C[C@@H](O[C@@H]6O[C@H](CO)[C@H](O[C@@H]7O[C@H](CO)[C@@H](O)[C@H](O[C@@H]8OC[C@@H](O)[C@H](O)[C@H]8O)[C@H]7O[C@@H]7O[C@H](CO)[C@@H](O)[C@H](O)[C@H]7O)[C@H](O)[C@H]6O)CC[C@]5(C)[C@H]4CC[C@]3(C)[C@H]1[C@@H]2C [Tomatine]
- percent Bodipy-positive cells: 99.38 ± 0.88%

Structure (SMILES): COc1ccc(C(=O)OC2C[C@H]3CC[C@@H](C2)N3C)cc1OC (some centres not stated) [Convolamine hydrochloride]
- percent Bodipy-positive cells: 36.3 ± 4.9%

Structure (SMILES): COc1cc2c(cc1O)C[C@H]1c3c(cc(O)c(OC)c3-2)CCN1C [Boldine]
- percent Bodipy-positive cells: 30.8 ± 4.4%

Structure (SMILES): O=C1C2CCN(CC2)C1(CO)CO
- percent Bodipy-positive cells [4]: 7.65 ± 2.9%
- percent Bodipy-positive cells [1]: 5.44 ± 0.45%

Structure (SMILES): O=C1CCO1 [Beta-propiolactone]
- percent Bodipy-positive cells [1]: 35.6 ± 5.4%
- percent Bodipy-positive cells (library stock concentration: 27.8 mM): 8.86 ± 2%

Structure (SMILES): O=C(CCCN1CCC(n2c(=O)[nH]c3ccccc32)CC1)c1ccc(F)cc1 [Benperidol]
- percent Bodipy-positive cells: 48.6 ± 13%

Structure (SMILES): C[C@]12CC[C@H](O)C[C@H]1CC[C@@H]1[C@@H]2CC[C@]2(C)[C@@H](C3=CC(=O)OC3)CC[C@]12O [Digitoxigenin]
- percent Bodipy-positive cells: 90 ± 4.5%

Structure (SMILES): CCC(Oc1ccc(Cl)cc1)C(=O)OC1CC2CCC(C1)N2C.O=C(O)/C=C\C(=O)O (configuration not stated) [SM-21 maleate]
- percent Bodipy-positive cells [1]: 56 ± 3%

Structure (SMILES): c1ccc2sc(C3(N4CCCCC4)CCCCC3)cc2c1 [BTCP hydrochloride]
- percent Bodipy-positive cells [1]: 89.1 ± 5.5%

Structure (SMILES): c1ccc2sc(C3(N4CCCCC4)CCCCC3)cc2c1 [BTCP maleate]
- percent Bodipy-positive cells [1]: 41 ± 13%
